Results are given in words; binding and its absence hold for the method and conditions named. In cells and extracts the contact can be indirect. These calls come from enrichment with a bait or labelling near it, and not all partners need be listed.
Molecular target: GANP–3×Flag (endogenously tagged) (human (endogenous in HeLa)) (UniProt O60318)
Experiment: affinity purification with mass spectrometry; anti-Flag IP from extracts of HeLa cells with endogenously 3×Flag-tagged GANP, LENG8 or PCID2; high stringency (washes with 450 mM NaCl); with or without Pierce universal nuclease; label-free, triplicates, against maternal HeLa

Sequences of proteins named here, by UniProt entry; tags and fusion partners are left off.
UniProt O60318: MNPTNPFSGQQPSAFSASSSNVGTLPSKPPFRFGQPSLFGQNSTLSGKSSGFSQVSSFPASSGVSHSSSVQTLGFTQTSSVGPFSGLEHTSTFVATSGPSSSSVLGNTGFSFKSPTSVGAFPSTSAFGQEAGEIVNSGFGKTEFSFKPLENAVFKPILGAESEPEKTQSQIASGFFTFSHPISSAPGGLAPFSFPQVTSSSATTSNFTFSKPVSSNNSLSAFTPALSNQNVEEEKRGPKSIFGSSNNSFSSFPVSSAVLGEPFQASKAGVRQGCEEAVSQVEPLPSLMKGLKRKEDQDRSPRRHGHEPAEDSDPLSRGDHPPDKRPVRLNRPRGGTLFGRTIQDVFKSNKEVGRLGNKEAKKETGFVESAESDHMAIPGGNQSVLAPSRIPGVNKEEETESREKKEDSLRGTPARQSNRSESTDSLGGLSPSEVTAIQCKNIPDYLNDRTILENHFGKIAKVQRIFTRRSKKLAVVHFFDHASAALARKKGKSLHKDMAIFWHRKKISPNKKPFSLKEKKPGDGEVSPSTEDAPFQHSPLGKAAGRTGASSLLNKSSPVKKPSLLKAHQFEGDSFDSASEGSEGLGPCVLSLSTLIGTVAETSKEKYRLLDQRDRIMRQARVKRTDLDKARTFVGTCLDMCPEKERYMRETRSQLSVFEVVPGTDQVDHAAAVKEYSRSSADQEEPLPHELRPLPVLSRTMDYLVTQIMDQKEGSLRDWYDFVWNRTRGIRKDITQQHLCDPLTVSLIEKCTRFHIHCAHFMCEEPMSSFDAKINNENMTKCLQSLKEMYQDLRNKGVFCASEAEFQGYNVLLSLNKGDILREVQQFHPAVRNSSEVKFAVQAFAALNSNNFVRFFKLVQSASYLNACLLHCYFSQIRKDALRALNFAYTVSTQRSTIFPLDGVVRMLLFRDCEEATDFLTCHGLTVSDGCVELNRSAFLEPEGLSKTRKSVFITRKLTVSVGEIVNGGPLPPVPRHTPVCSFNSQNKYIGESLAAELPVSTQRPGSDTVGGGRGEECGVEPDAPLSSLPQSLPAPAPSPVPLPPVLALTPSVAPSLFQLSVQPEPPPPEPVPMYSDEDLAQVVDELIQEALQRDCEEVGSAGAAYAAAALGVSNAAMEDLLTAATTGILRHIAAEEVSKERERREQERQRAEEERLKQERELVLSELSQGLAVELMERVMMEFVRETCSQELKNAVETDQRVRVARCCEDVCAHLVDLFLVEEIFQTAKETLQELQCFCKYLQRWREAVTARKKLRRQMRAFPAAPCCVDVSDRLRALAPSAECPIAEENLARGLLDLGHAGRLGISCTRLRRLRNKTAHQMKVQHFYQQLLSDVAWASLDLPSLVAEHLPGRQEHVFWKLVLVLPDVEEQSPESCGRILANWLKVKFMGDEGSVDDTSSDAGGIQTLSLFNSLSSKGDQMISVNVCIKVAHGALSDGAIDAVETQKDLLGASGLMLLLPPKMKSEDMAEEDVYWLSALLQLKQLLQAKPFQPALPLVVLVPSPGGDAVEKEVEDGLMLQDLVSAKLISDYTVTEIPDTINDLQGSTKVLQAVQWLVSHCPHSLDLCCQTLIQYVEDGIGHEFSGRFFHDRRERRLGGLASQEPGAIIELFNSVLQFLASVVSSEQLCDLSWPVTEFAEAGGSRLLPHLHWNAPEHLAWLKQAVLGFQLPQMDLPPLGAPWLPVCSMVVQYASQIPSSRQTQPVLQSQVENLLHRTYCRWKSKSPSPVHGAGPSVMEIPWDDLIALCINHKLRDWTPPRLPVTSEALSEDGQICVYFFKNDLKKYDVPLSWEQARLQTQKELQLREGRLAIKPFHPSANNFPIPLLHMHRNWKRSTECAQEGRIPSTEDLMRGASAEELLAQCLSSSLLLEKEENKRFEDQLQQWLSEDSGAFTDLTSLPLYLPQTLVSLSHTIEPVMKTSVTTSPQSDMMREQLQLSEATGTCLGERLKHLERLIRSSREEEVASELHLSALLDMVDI
UniProt P12270: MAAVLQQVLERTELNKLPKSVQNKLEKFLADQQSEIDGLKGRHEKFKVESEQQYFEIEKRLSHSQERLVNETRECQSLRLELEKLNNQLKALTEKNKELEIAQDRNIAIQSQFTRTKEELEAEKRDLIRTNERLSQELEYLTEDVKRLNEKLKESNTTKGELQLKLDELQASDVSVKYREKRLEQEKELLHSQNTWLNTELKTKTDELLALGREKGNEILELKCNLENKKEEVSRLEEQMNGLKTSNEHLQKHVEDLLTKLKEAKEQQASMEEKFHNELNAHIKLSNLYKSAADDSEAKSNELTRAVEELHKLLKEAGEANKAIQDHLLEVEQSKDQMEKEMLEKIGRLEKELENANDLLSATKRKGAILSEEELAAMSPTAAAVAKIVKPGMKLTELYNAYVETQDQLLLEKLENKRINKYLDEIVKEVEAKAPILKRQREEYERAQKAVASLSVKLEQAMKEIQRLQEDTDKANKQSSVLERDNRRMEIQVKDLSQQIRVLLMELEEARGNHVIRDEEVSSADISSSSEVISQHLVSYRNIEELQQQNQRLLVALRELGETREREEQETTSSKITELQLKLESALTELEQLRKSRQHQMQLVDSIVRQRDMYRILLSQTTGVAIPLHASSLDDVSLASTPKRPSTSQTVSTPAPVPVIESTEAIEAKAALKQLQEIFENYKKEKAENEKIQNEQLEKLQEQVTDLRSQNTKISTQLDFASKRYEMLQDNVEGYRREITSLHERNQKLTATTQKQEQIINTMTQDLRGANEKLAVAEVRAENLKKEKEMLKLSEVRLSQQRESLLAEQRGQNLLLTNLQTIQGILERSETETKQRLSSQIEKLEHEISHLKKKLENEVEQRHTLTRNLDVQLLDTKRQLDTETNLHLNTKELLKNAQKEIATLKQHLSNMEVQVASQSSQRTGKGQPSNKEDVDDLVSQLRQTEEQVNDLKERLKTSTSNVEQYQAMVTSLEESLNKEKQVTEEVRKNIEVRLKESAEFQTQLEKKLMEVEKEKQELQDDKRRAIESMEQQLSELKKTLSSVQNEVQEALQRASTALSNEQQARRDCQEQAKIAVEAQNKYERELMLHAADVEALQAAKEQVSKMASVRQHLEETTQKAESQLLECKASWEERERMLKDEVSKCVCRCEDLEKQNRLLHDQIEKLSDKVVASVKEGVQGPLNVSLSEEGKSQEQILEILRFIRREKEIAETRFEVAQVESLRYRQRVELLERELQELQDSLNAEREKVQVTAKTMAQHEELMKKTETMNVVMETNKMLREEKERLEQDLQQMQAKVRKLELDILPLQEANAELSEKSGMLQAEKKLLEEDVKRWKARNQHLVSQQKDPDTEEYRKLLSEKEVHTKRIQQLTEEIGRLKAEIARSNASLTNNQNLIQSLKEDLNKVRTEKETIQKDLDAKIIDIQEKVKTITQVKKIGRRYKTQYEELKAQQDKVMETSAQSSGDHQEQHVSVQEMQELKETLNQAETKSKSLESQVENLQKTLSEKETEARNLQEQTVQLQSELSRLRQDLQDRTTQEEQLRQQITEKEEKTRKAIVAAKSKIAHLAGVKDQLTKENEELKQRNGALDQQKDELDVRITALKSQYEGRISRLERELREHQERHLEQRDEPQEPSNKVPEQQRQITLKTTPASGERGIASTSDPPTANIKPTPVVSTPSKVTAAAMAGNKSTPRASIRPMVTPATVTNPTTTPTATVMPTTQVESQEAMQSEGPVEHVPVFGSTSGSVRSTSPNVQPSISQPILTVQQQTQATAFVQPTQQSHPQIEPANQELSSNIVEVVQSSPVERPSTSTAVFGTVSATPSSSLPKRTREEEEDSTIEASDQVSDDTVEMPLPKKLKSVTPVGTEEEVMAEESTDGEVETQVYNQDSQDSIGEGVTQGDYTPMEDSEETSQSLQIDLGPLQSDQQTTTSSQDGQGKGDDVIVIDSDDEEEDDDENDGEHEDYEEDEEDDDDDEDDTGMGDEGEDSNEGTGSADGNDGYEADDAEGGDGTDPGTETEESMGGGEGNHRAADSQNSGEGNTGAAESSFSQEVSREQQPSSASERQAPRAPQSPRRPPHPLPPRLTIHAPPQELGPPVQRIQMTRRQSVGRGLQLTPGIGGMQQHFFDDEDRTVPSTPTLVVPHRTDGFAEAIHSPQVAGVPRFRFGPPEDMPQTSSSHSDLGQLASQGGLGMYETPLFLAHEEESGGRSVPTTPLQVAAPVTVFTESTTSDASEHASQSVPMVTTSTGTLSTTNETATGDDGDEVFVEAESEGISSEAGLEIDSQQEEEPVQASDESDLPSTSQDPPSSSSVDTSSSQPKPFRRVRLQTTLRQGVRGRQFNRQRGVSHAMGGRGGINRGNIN

binding: binds
Substance: TPR (endogenous nuclear pore basket protein) (from UniProt P12270 1-2363)
